Assay results taken from the supplement of paper PMC10849652.
The list shows a part of the results.

Chains of the proteins cited; added tags and fusions are not shown. Lines headed by an entry give the natural chain unless they say otherwise; changes in a name come on top.
UniProt Q0GE19: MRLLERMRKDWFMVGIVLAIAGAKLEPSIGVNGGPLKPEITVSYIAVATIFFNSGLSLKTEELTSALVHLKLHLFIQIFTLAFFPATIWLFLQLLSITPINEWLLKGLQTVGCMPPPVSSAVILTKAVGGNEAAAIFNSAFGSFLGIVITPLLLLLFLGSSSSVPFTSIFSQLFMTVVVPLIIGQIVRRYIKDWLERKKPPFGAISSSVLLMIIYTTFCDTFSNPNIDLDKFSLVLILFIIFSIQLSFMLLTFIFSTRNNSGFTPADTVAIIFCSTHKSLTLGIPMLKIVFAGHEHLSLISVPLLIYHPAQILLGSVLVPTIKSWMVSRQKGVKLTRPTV
UniProt P12235: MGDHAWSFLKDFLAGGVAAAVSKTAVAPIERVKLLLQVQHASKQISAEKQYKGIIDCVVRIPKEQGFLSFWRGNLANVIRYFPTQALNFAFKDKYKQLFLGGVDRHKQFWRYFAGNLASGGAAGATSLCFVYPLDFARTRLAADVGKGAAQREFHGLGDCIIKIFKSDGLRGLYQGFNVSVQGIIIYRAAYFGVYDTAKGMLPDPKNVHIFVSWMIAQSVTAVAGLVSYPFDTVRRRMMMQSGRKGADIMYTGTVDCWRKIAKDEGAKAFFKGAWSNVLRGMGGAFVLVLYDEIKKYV
UniProt Q9BRV3: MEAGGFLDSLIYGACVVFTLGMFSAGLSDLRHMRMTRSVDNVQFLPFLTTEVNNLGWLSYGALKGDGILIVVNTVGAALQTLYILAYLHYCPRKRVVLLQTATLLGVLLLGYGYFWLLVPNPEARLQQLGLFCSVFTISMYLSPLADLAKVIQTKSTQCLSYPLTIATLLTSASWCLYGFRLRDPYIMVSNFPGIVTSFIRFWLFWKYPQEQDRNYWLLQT
UniProt P31641: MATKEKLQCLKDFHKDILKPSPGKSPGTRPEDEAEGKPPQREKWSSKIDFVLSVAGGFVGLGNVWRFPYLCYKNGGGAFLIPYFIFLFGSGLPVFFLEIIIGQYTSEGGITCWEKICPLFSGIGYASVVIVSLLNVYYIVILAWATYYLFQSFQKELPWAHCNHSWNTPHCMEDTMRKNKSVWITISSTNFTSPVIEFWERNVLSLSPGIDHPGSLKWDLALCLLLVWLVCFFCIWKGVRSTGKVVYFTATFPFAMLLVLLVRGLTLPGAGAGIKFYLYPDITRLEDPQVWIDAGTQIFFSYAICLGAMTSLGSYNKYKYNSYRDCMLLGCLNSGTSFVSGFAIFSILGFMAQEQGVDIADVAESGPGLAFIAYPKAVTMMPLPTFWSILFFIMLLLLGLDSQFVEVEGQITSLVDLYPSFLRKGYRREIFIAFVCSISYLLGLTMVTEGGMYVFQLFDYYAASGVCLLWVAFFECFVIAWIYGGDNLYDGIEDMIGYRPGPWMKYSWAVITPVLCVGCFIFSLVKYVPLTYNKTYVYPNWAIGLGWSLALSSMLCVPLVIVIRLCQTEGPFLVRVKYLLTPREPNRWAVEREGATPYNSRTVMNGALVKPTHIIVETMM
UniProt Q8N8R3: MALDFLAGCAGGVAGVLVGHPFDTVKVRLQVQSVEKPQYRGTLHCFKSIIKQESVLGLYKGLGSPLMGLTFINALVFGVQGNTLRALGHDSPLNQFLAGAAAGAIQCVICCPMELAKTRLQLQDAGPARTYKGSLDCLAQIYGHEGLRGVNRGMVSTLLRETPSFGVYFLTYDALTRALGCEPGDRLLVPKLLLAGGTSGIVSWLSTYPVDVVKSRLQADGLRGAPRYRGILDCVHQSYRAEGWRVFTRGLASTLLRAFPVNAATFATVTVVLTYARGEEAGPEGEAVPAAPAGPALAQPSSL
UniProt P41440: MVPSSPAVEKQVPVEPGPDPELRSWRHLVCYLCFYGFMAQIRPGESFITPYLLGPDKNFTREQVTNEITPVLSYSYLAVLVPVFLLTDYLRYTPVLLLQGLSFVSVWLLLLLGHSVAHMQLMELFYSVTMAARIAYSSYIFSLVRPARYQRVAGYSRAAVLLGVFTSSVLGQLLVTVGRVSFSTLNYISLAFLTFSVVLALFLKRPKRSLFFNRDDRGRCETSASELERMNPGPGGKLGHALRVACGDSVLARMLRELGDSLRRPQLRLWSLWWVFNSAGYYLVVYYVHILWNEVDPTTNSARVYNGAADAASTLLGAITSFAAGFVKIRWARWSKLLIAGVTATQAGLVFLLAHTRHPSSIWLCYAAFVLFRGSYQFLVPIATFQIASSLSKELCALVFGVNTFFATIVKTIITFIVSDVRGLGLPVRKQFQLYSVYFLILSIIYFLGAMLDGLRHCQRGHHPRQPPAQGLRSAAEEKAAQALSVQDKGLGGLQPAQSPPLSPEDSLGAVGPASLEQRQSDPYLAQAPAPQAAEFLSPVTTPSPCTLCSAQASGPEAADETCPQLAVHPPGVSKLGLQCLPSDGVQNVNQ
UniProt Q96DW6: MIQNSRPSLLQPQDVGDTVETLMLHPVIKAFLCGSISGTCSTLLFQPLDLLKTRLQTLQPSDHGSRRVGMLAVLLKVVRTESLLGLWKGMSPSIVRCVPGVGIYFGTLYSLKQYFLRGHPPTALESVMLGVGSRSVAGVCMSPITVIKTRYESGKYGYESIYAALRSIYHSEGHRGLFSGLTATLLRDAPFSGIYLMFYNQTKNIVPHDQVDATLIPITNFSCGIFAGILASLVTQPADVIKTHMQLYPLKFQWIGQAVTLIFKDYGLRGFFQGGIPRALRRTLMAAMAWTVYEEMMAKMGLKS
UniProt Q8N697: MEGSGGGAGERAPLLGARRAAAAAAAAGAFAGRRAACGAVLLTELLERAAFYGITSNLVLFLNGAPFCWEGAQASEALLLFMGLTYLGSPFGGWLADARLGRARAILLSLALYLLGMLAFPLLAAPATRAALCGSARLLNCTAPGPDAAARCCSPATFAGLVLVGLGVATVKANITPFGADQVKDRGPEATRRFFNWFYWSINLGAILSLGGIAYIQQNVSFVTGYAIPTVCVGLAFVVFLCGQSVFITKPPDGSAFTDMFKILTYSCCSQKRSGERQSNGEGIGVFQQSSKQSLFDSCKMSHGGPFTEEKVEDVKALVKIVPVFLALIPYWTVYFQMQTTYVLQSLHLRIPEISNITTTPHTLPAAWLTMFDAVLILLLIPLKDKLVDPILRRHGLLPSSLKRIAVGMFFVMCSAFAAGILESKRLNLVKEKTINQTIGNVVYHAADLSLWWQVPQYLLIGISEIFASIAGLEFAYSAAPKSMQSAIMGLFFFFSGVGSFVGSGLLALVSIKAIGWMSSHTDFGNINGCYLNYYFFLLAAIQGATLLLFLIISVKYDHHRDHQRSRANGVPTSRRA
UniProt Q8NEW0: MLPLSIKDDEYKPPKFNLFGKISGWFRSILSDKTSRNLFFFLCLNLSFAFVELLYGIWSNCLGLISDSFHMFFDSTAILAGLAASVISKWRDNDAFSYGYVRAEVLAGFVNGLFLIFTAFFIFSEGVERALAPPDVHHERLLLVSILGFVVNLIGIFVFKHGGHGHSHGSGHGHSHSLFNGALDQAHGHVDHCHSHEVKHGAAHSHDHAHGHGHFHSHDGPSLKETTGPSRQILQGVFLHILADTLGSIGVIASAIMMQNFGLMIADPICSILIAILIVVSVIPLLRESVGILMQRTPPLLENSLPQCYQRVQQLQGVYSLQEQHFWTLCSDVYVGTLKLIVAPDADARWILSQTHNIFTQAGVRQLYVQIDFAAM
UniProt Q86VD7: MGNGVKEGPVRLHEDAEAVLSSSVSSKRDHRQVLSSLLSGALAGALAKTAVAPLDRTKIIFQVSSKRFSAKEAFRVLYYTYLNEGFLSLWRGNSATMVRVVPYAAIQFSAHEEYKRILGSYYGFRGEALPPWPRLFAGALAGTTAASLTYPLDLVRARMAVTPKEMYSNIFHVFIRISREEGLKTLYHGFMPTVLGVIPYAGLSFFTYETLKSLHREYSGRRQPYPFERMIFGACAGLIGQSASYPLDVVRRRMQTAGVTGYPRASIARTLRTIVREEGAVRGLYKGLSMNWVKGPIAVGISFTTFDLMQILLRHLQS
UniProt Q9NVC3: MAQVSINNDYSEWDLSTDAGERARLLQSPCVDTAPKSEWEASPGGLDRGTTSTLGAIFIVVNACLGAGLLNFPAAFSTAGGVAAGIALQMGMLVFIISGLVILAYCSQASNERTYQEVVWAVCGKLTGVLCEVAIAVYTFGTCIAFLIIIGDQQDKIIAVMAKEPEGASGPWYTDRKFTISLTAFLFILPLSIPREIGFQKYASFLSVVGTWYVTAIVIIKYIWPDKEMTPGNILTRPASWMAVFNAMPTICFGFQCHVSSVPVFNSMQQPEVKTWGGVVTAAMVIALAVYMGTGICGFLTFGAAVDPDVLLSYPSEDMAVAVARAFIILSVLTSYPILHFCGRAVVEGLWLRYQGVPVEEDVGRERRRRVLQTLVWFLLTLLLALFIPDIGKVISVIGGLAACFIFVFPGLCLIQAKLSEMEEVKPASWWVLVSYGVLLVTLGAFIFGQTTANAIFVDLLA

Key:
Experiment in all cases: log2 fold change, soluble protein after heating vs DMSO (PISA); higher = thermal stabilisation; K562 cells, 10 uM, 30 min; active = over 0.2 and 3.5 SD of the protein, either way, in both replicates (recomputed)
[1] = compound: CC[C@@H]1C(=O)N(C)c2cnc(Nc3ccc(C(=O)NC4CCN(C)CC4)cc3OC)nc2N1C1CCCC1
Summary of the method: (§1)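 Soluble protein was defined as the supernatant after 21,000xg for 90 min. It came from K562 cells at 2×10^6 cells/mL given 10 μM compound for 30 min, heated in aliquots for 3 min across 48°C-58°C, pooled, and extracted in PBS with 0.5% NP-40 at 4°C, and was quantified by TMTpro 16plex LC-MS/MS with equalised channel sums. Thermal stability against control samples, from duplicates, is reported as log2 fold change.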

volasertib = compound: CC[C@@H]1C(=O)N(C)c2cnc(Nc3ccc(C(=O)N[C@H]4CC[C@H](N5CCN(CC6CC6)CC5)CC4)cc3OC)nc2N1C(C)C [volasertib]
Summary of the method: as §1

[2] = compound: CC[C@H](C)N1C=C(C2=C(C=C(C=C21)C3=CN=C(C=C3)N4CCNCC4)C(=O)NCC5=C(C=C(NC5=O)C)C)C
Summary of the method: as §1

[3] = compound: CCn1c(C(=O)N(C2CC2)C2CC2)cc2c3c(ncn3C)c(Nc3cc(C)n(C)n3)nc21
Summary of the method: as §1

rosiglitazone = compound: CN(CCOC1=CC=C(C=C1)C[C@H]2C(=O)NC(=O)S2)C3=CC=CC=N3 (racemic) [rosiglitazone]
Summary of the method: as §1

Tubastatin A = compound: CN1CCc2c(c3ccccc3n2Cc2ccc(C(=O)NO)cc2)C1 [Tubastatin A]
Summary of the method: as §1

[4] = compound: CNC(=O)C1=CC=CC=C1NC2=NC(=NC=C2Cl)NC3=C(C=C(C=C3)N4CCOCC4)OC
Summary of the method: as §1

rucaparib = compound: CNCc1ccc(-c2[nH]c3cc(F)cc4c3c2CCNC4=O)cc1 [rucaparib]
Summary of the method: as §1

encorafenib = compound: COC(=O)N[C@@H](C)CNc1nccc(-c2cn(C(C)C)nc2-c2cc(Cl)cc(NS(C)(=O)=O)c2F)n1 [encorafenib]
Summary of the method: as §1

epoxomicin = compound: CC[C@H](C)[C@@H](C(=O)N[C@@H]([C@@H](C)O)C(=O)N[C@@H](CC(C)C)C(=O)[C@]1(CO1)C)NC(=O)[C@H]([C@@H](C)CC)N(C)C(=O)C [epoxomicin]
Summary of the method: as §1

[5] = compound: CCn1cc(-c2ccnc3[nH]c(-c4cccc(CN(C)C)c4)cc23)c(-c2ccc(NC(=O)N(C)C)cc2)n1
Summary of the method: as §1

[6] = compound: CN(C)CC(=O)Nc1ccc2[nH]c(=O)c3ccccc3c2c1
Summary of the method: as §1

[7] = compound: CN1C2=C(C3=C1C(=O)N(N=C3)CC4=CC(=CC=C4)N)SC(=C2)S(=O)C
Summary of the method: as §1

[8] = compound: CN1CCC(CNc2ccc3ncc(-c4cccc(OC(F)(F)F)c4)n3n2)CC1
Summary of the method: as §1

saracatinib = compound: CN1CCN(CCOc2cc(OC3CCOCC3)c3c(Nc4c(Cl)ccc5c4OCO5)ncnc3c2)CC1 [saracatinib]
Summary of the method: as §1

sotrastaurin = compound: CN1CCN(c2nc(C3=C(c4c[nH]c5ccccc45)C(=O)NC3=O)c3ccccc3n2)CC1 [sotrastaurin]
Summary of the method: as §1

defactinib = compound: CNC(=O)c1ccc(Nc2ncc(C(F)(F)F)c(NCc3nccnc3N(C)S(C)(=O)=O)n2)cc1 [defactinib]
Summary of the method: as §1

[9] = compound: CNc1nc(-c2ccc3c(N)n[nH]c3c2)cc(N2C[C@@H](C(=O)NC3CCCCC3)CC[C@H]2C)n1
Summary of the method: as §1

[10] = compound: COC(=O)[C@H](CCSC)NC(=O)C1=C(C=C(C=C1)NC[C@H](CS)N)C2=CC=CC=C2
Summary of the method: as §1

alvocidib = compound: CN1CC[C@H](c2c(O)cc(O)c3c(=O)cc(-c4ccccc4Cl)oc23)[C@H](O)C1 [alvocidib]
Summary of the method: as §1

Measured: log2 fold change

SLC10A7 isoform 1 (UniProt Q0GE19)
inactive: [1] 0.02 | volasertib -0.031 | [2] 0.18 | [3] -0.028 | rosiglitazone -0.027 | Tubastatin A -0.082 | [4] 0.07 | rucaparib -0.08 | encorafenib 0.074

SLC25A4 (UniProt P12235)
inactive: [1] -0.012 | volasertib 0.06 | [2] -0.024 | epoxomicin 0.009 | [5] 0.037 | [6] -0.053 | [7] -0.038 | [8] -0.001 | saracatinib -0.022 | sotrastaurin 0.029 | Tubastatin A -0.138 | [4] 0.044 | defactinib 0.012 | rucaparib -0.061 | [9] -0.026 | encorafenib -0.001 | [10] 0.019

SLC50A1 (UniProt Q9BRV3)
inactive: [1] 0.066 | volasertib -0.064 | [3] -0.191 | rosiglitazone 0.033 | [7] 0.043 | saracatinib 0.196 | [4] 0.18 | rucaparib -0.261 | [9] -0.106 | encorafenib 0.051

SLC6A6 (UniProt P31641)
inactive: [1] -0.011 | volasertib 0.01 | [2] 0 | epoxomicin 0.135 | [5] -0.053 | [6] -0.012 | [7] -0.02 | [8] 0.084 | saracatinib -0.011 | sotrastaurin 0.041 | Tubastatin A -0.143 | [4] -0.029 | defactinib -0.051 | rucaparib 0.065 | [9] -0.061 | encorafenib -0.051 | [10] -0.009

SLC25A29 (UniProt Q8N8R3)
inactive: [1] 0.356 | volasertib 0.052 | [3] 0.135 | [7] -0.262 | saracatinib 0.267 | Tubastatin A 0.066 | [4] -0.099 | rucaparib -0.128 | [9] 0.001 | encorafenib 0.134

SLC19A1 (UniProt P41440)
inactive: [1] 0.08 | volasertib 0.078 | [2] -0.062 | epoxomicin 0.087 | [5] -0.047 | [6] 0.003 | [7] -0.109 | [8] 0.172 | saracatinib 0.012 | sotrastaurin -0.173 | Tubastatin A -0.021 | [4] -0.035 | defactinib -0.061 | rucaparib -0.179 | [9] -0.048 | encorafenib 0.041 | [10] -0.003

SLC25A38 (UniProt Q96DW6)
inactive: [1] 0.013 | volasertib 0.009 | [2] -0.002 | epoxomicin -0.025 | [5] 0 | [6] -0.02 | [7] -0.017 | [8] -0.048 | saracatinib 0.076 | sotrastaurin -0.027 | Tubastatin A -0.035 | [4] -0.015 | defactinib 0.046 | rucaparib -0.002 | [9] 0.026 | encorafenib 0.016 | [10] -0.057

SLC15A4 (UniProt Q8N697)
inactive: [1] 0.05 | volasertib -0.026 | [2] 0.131 | [3] 0.046 | [6] 0.033 | rosiglitazone 0.104 | [7] -0.115 | saracatinib 0.058 | alvocidib -0.075 | Tubastatin A 0.022 | [4] 0.022 | defactinib -0.008 | rucaparib -0.053 | [9] -0.027 | encorafenib 0.011 | [10] 0.009

SLC30A7 (UniProt Q8NEW0)
inactive: [1] 0.016 | volasertib -0.074 | [2] -0.041 | epoxomicin -0.034 | [5] 0.032 | [6] 0.014 | [7] -0.05 | [8] 0.091 | saracatinib 0.077 | sotrastaurin 0.101 | Tubastatin A -0.107 | [4] 0.016 | defactinib -0.051 | rucaparib 0.02 | [9] -0.026 | encorafenib 0.059 | [10] 0.029

SLC25A42 (UniProt Q86VD7)
inactive: [1] -0.025 | volasertib 0.039 | [2] -0.028 | epoxomicin 0 | [5] 0.002 | [6] -0.021 | [7] 0.022 | [8] 0.022 | saracatinib 0.105 | sotrastaurin 0.023 | Tubastatin A -0.032 | [4] 0.005 | defactinib 0.101 | rucaparib 0.021 | [9] 0.035 | encorafenib -0.067 | [10] 0.083

SLC38A7 (UniProt Q9NVC3)
inactive: [1] -0.283 | volasertib -0.054 | [2] -0.023 | epoxomicin 0.078 | [5] 0.109 | [6] -0.123 | [8] -0.589 | sotrastaurin 0.152 | Tubastatin A -0.177 | [4] -0.052 | defactinib -0.126 | rucaparib 0.004 | encorafenib 0.016 | [10] -0.261
